Assays:
in vivo = settings: Sprague-Dawley, rat, po
Androgen receptor = target: T1, Androgen receptor (Homo sapiens, UniProt P10275)
T1 sequence (P10275 whole entry): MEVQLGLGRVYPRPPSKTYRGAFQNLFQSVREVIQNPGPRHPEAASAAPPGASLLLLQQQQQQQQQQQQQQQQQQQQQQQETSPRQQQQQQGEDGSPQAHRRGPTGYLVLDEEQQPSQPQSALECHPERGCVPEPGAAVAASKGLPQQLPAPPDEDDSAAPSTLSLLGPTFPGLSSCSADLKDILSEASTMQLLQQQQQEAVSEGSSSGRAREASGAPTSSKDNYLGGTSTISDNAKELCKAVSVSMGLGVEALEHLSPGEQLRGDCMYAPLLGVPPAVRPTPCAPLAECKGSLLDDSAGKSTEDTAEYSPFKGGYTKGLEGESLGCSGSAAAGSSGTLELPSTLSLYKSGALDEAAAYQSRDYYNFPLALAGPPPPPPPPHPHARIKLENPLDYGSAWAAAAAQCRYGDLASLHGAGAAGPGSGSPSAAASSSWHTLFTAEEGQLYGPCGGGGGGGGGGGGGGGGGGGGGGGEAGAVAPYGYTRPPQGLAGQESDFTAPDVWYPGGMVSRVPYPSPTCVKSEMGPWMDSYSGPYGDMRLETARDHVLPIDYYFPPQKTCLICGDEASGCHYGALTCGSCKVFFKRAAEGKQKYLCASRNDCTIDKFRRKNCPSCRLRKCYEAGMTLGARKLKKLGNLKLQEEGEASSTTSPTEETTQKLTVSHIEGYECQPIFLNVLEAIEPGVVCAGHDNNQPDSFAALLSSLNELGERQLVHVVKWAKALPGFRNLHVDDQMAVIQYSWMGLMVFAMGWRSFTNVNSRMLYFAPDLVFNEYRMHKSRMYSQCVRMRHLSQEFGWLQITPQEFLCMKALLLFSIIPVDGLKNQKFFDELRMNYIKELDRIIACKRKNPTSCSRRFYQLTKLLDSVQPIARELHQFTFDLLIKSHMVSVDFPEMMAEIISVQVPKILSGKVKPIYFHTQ

[1] = target: T2, Mineralocorticoid receptor (Homo sapiens, UniProt P08235)
T2 sequence (P08235 whole entry): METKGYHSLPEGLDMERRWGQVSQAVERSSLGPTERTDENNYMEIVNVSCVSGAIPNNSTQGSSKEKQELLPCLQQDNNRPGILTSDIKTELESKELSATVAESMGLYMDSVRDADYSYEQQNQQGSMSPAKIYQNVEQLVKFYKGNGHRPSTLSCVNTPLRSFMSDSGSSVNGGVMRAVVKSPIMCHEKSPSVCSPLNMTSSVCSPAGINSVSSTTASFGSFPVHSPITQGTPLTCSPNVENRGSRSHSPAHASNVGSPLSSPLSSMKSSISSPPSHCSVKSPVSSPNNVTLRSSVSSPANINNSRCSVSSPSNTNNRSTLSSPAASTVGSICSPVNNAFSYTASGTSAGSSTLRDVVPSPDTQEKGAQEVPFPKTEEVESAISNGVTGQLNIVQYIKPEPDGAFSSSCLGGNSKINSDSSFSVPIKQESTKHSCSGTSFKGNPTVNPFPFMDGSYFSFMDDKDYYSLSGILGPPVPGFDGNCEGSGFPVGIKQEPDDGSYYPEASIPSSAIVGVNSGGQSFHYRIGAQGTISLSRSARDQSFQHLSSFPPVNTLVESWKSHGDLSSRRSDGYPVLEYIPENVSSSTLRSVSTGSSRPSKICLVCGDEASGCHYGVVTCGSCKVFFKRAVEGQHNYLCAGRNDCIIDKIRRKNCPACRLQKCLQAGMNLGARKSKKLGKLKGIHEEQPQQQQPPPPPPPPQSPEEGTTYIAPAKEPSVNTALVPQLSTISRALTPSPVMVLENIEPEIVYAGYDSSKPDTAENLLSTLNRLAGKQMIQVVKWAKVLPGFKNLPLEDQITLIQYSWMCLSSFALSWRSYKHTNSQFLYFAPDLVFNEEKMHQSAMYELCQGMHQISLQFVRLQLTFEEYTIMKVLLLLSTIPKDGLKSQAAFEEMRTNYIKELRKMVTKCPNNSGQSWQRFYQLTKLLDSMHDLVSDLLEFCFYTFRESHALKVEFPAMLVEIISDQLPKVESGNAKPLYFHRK

Progesterone receptor = target: T3, Progesterone receptor (Homo sapiens, UniProt P06401)
T3 sequence (P06401 whole entry): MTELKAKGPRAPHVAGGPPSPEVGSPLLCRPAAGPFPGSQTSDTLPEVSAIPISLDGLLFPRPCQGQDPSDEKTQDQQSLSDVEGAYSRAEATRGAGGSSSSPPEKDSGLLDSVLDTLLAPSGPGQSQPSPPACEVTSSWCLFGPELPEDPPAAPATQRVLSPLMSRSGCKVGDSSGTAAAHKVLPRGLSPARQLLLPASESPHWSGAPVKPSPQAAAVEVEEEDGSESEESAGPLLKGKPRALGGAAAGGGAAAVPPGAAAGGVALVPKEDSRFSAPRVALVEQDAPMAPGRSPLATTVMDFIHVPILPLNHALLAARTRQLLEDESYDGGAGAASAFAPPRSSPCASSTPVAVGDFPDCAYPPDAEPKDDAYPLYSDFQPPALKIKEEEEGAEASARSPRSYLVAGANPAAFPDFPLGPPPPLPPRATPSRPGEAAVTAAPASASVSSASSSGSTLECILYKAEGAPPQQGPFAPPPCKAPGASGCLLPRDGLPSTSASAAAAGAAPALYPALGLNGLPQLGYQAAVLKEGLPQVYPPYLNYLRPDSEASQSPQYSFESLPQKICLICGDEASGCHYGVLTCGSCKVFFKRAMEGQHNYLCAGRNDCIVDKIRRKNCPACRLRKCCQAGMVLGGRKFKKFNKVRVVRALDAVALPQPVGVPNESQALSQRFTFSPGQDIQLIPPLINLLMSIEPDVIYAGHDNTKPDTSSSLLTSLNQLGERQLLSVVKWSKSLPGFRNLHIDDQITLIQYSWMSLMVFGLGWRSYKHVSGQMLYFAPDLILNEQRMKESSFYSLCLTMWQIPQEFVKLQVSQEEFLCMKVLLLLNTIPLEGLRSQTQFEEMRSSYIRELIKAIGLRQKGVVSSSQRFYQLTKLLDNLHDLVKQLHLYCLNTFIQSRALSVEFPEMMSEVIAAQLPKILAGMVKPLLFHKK

Structure (SMILES)	bioavailability (in vivo) [%]	IC50 (Androgen receptor) [nM]	IC50 [1] [nM]	IC50 (Progesterone receptor) [nM]
Cc1c(NS(C)(=O)=O)cccc1N(Cc1ccccc1)Cc1ccccc1	5	–	–	–
Cc1c(NS(C)(=O)=O)cccc1N(Cc1ccccc1)Cc1ccc(Cl)cc1F	–	300	4000	790
